## Library screening results

From ChEMBL document CHEMBL3988442, “University of Dundee, Small-Polar-MMV Screening Library” (2021).

Results are given as percent effect. How 0% and 100% were set is not recorded. Most values in the screen are low, and negative values occur. This is an unselected part of the compounds tested.

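Whole-cell assay for inhibitors of Mycobacterium tuberculosis growth, labelled Cornell in the record; the read-out is not stated. The concentration is filed as 10 mM, unlikely as a test dose, so the dose is not known. Higher means stronger inhibition (inferred from two other growth screens of the library). Of about 53,000 compounds tested this way, about 900 (1.7%) reached 50% or more in at least one test.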

Result for Cc1cc2cccc(C(=O)N3CC[C@@H](N)[C@H](O)C3)c2o1 was 7.065%.
Result for Cc1n[nH]cc1CNC(C(=O)N1CCCCC1)c1ccccc1 (centres unmarked) was -8.362%.
Result for Cc1ccc(Oc2ncccc2C(=O)N(C)CCCN(C)C)cc1 was -0.477%.
Result for Cc1ccc(-n2nnc(C(=O)NCCS(N)(=O)=O)c2C2CC2)cc1 was 2.479%.
Result for CCN(CC1CCCO1)C(=O)Nc1cc(C)ccc1S(C)(=O)=O (centres unmarked) was -1.194%.
Result for O=C(CCc1cc2n(n1)CCCNC2)N1CCC(N2CCOC2=O)CC1 was -47.51%.
Result for Cc1csc(CN2CCn3c(COc4cccnc4)cnc3C2C)n1.O=C(O)C(F)(F)F.O=C(O)C(F)(F)F (centres unmarked) was 9.144%.
Result for Cn1ccnc1CNC(=O)N1CCCC(Cc2nccn2C)C1 (centres unmarked) was 17.25%.
Result for COc1cc(CNC(C)c2cccc(Cl)c2)cc(OC)c1OC (centres unmarked) was 2.696%.
Result for Cc1ccnc(NS(=O)(=O)c2cc(C(N)=O)n(C)c2)c1 was -7.9%.
Result for O=C1COC2(CCN(Cc3ccco3)CC2)CN1Cc1cccnc1 was 24.6%.
Result for Cc1cn(-c2ccccc2)nc1NS(=O)(=O)c1ccc(C(=O)O)cc1 was 12.59%.
Result for O=C(C1CC1)N1CCN(Cc2ccncc2)c2ncccc2C1.O=C(O)C(F)(F)F.O=C(O)C(F)(F)F was -8.08%.
Result for CN(C)c1ncc(CNS(=O)(=O)c2cc(F)ccc2Cl)n1C was 13.81%.
Result for O=C(O)C(F)(F)F.O=C(O)C(F)(F)F.O=C(O)C(F)(F)F.[H][C@@]12CCCO[C@]1([H])[C@H](N1CCN(C)CC1)CN2Cc1cc(C)c(C)o1 was 16.17%.
Result for Cc1nn(C)c(N(C)C)c1CNCc1ccnc(N2CCCCC2)c1 was 29.31%.
Result for CC(=O)N1CCCn2nc(CNS(=O)(=O)N(C)C(C)C)cc2C1 was 8.867%.
Result for Cc1noc(-c2ccnc(N3CCCN(C4CCOCC4)CC3)c2)n1 was 21.71%.
Result for O=C(O)C(F)(F)F.[H][C@@]12COC[C@@H](C(=O)N3CCC(F)CC3)[C@]1([H])CN(CC1CC1)C2 was -29.71%.
Result for Cc1ccccc1Cc1nc(CSc2nnc(N)n2C2CC2)no1 was -5.508%.
Result for Cc1ccc(CN(C)C(=O)CN2CC(n3cccn3)C2)o1 was -11.35%.
Result for COC(=O)c1ccc(OCC(=O)N(C)Cc2ccsc2)c(OC)c1 was 7.417%.
Result for O=C(CCn1cc(Cl)cn1)N1CCC2(CC1)OCCCC2O (centres unmarked) was -13.93%.
Result for Cc1ncc2c(n1)CN(CC(=O)Nc1nncs1)CC2 was 11.66%.
Result for CCOc1nnc(CN2CCOC(CNc3cccnn3)C2)s1 (centres unmarked) was -5.699%.
Result for CC(C)NC[C@H]1COCc2nc3cccnc3n21 was 7.014%.
Result for CCN1CC(=O)c2sc(NC(C)C)nc2C1 was -3.697%.
Result for CN1CC(C(=O)NC(C)(C)C)CC1=O (centres unmarked) was -0.7038%.
Result for O=C(O)C(F)(F)F.O=C(O)C(F)(F)F.c1cncc(COCc2n[nH]c3c2CN(Cc2ccco2)C3)c1 was 0.7816%.
Result for Cc1cccc(C)c1-n1nnnc1C1(NCc2ccco2)CCCC1 was 13.48%.
Result for COc1cc(Cl)c(NC(=O)NCCn2cccc2)cc1OC was 16.25%.
Result for CN1CCC(N(Cc2ccncc2)C(=O)COCC2CCCCO2)CC1 (centres unmarked) was 1.476%.
Result for Cc1ccccc1N1CC2(CCCCN2CC2CC2)CC1=O.O=C(O)C(F)(F)F (centres unmarked) was -23.27%.
Result for Cn1cc(C2CC(=O)NC23CCN(C(=O)c2ccc[nH]2)CC3)cn1 (centres unmarked) was -47.63%.
Result for O=C(C1CCCO1)N1CCC(n2cc(-c3ccc(F)cc3)nn2)CC1 (centres unmarked) was 0.3259%.
Result for CC(C)(CNC(=O)C1CCCN1S(C)(=O)=O)N1CCOCC1 (centres unmarked) was -18.27%.
Result for O=C(O)C(F)(F)F.[H][C@@]12CCN(Cc3c(C)noc3C)[C@]1([H])CC[C@H](C(=O)N1CCCC1)O2 was -1.336%.
Result for COCc1cccc(NC(C(N)=O)c2ccc(Br)cc2)c1 (centres unmarked) was 39.83%.
Result for O=C1CCN(C(=O)NCC(c2ccccc2)c2ccccc2)CCN1 was 23.03%.
Result for CCCN1CCC(c2nc3ccc(-c4ccccc4)cn3n2)CC1.O=C(O)C(F)(F)F was 7.585%.
Result for O=C(NCC1CC1)C1CCC2(CN(C(=O)c3ccno3)C2)O1 (centres unmarked) was 17.1%.
Result for CC(C)c1cc2c(s1)NC(c1ccccc1)NC2=O (centres unmarked) was -26.8%.
Result for O=C(O)C(F)(F)F.O=C(O)C(F)(F)F.[H][C@@]12C[C@@H](OCc3ccccn3)CN1CCN(c1ncccn1)C2 was 16.67%.
Result for Cc1cc(N2CCC(NC(=O)CCc3cnn(C)c3)CC2)nc(C)n1 was 15.51%.
Result for Cc1nccnc1C1CCN(C(=O)C(C)C)CC1 was 16.88%.
Result for Cc1nn(-c2ccccc2)c2c1C(c1ccc(C(=O)O)cc1)CC(=O)N2 (centres unmarked) was 12.83%.

The first 3 entries again:

- Cc1cc2cccc(C(=O)N3CC[C@@H](N)[C@H](O)C3)c2o1 | 7.065%
- Cc1n[nH]cc1CNC(C(=O)N1CCCCC1)c1ccccc1 (centres unmarked) | -8.362%
- Cc1ccc(Oc2ncccc2C(=O)N(C)CCCN(C)C)cc1 | -0.477%